In publication PMC10662729:
Results are given in words; binding and its absence hold for the method and conditions named. In cells and extracts the contact can be indirect. Some binding calls cover weakened binding; strength is not graded here.

The chains behind the UniProt entries cited, without tags or fusion partners. Residues count along the entry.
UniProt P35869, residues 11-848: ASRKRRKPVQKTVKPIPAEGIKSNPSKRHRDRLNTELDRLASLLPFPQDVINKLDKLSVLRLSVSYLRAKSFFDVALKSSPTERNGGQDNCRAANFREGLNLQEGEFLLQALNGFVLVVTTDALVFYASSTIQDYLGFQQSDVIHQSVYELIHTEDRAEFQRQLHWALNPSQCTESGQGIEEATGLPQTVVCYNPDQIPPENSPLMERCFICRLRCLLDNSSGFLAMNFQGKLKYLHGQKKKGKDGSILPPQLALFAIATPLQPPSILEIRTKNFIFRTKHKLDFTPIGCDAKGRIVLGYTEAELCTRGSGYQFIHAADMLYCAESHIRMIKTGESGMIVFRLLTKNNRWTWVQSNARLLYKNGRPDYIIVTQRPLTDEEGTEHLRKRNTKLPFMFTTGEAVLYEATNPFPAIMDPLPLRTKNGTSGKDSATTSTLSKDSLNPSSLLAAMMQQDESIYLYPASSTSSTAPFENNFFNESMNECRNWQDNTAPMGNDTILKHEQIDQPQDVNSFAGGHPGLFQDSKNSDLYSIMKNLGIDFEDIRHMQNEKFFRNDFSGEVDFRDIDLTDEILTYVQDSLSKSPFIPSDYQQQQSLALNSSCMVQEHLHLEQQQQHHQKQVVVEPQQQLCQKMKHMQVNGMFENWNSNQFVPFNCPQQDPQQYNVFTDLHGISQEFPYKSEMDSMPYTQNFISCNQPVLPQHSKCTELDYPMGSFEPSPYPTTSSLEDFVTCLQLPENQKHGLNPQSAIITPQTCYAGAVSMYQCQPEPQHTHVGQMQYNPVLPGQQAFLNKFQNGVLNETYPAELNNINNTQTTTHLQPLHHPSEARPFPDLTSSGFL
UniProt P53350: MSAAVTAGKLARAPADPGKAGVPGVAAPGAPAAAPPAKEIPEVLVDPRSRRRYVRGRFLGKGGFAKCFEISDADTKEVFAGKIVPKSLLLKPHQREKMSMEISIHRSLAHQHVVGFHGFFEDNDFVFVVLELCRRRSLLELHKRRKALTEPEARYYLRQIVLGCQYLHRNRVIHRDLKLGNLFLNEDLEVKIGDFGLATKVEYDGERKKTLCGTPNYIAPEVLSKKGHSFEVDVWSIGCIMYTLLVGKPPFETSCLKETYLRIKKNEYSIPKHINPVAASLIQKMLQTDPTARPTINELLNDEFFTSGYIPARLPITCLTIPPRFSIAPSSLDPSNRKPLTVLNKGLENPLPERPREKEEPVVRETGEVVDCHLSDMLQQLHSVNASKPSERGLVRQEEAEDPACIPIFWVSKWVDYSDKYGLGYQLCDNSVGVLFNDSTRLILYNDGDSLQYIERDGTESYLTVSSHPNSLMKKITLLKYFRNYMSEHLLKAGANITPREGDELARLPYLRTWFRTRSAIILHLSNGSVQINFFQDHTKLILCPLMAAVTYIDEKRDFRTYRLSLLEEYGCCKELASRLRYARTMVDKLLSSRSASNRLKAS

Molecular target: Aryl hydrocarbon receptor (human (endogenous in A549)) (UniProt P35869)
Assay: co-IP; endogenous proteins in A549 lysate (1 mg total protein) incubated with anti-AHR, anti-PLK1 or IgG control antibodies overnight; Protein A/G magnetic beads at room temperature 30 min; washed three times with 1x TBST; immunoblot; 10% lysate as input

binding: binds
Substance: Polo-like kinase 1 (from UniProt P53350 1-603) (enzyme)
